Assay results: patent EP2377879A1, “N-terminal HPV E7 fusion proteins” (Deutsches Krebsforschungszentrum, priority 2010, dated 2011)
Not every detail of the peptide structures is certain; ends, links or a residue may be inferred. Ends that are not written are not given here.

Key:
[1] = system: E7-specific cytotoxic T-lymphocytes; test: IFNγ ELISPOT, E7-specific CTLs in splenocytes of immunized mice; format: in vivo; details: C57BL/6 mice, three times s.c. at biweekly intervals, 50 µg; E7 peptide with IFA, others with MPL and Alum; splenocytes seven days after the last immunization
TC-1 cells = test: Tumor regression assay with TC-1 cells; format: in vivo, C57BL/6 mice

Sequence: RAHYNIVTF [E7 peptide, RAHYNIVTF]
- E7-specific CTL response [1]: only few
- time course of tumor development (in words) (TC-1 cells; 5x10^5 TC-1 cells day 0, 50 µg s.c. from day 8, three times biweekly, Fig. 5): no tumor growth was observed until day 29
- mice showing growing tumors later than day 29 (TC-1 cells; 5x10^5 TC-1 cells day 0, 50 µg with IFA s.c. from day 8, three times biweekly, 10 mice per group): 5/10
- tumor after re-challenge with TC-1 cells (TC-1 cells; mice tumor-free at day 43 re-challenged on day 50 with 5x10^5 TC-1 cells, after 14 days): developed a tumor
